Measured values taken from PMC5814800.
Numbering of substitutions follows the chain as printed. No constants are given. Whether binding was seen depends on the method and setting. For some of these results: Binding can be weak; no strength is given. Tags and fused reporters may be left off the sequences shown.

How the values were obtained:
Assay in all cases: two-hybrid; bacterial two-hybrid in E. coli BTH101; signal quantified by β-galactosidase assay (ONPG, ΔOD420/min/ml) of cultures grown 16 h at 30°C with IPTG
[1] = biological target: T1, ϕC31 IntE476G fused to T18 (Streptomyces phage ϕC31) (UniProt Q9T221)
T1 sequence: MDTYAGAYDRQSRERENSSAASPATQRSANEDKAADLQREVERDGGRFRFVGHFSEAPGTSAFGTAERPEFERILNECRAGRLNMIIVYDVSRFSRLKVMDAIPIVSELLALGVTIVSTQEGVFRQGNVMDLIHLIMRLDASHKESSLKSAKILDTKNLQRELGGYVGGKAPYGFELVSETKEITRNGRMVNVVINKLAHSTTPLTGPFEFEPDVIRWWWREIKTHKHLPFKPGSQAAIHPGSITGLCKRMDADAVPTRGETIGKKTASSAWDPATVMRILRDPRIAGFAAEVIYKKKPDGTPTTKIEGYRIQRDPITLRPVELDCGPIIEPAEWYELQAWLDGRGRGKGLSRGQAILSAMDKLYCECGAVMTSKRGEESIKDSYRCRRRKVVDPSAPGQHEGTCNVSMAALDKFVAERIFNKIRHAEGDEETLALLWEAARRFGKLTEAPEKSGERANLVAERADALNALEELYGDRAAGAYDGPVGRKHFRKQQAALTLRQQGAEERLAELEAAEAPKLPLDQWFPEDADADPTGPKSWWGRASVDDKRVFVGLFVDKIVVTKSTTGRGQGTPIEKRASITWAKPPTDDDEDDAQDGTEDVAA

[2] = biological target: T2, ϕC31 IntI582L fused to T18 (Streptomyces phage ϕC31) (UniProt Q9T221)
T2 sequence: T1 sequence with G476E, I582L

[3] = biological target: T3, ϕC31 IntW526F fused to T18 (Streptomyces phage ϕC31) (UniProt Q9T221)
T3 sequence: T1 sequence with G476E, W526F

[4] = biological target: T4, ϕC31 integrase lacking the coiled-coil motif (aa 457 to 523 deleted) fused to T18 (Streptomyces phage ϕC31) (UniProt Q9T221)
T4 sequence: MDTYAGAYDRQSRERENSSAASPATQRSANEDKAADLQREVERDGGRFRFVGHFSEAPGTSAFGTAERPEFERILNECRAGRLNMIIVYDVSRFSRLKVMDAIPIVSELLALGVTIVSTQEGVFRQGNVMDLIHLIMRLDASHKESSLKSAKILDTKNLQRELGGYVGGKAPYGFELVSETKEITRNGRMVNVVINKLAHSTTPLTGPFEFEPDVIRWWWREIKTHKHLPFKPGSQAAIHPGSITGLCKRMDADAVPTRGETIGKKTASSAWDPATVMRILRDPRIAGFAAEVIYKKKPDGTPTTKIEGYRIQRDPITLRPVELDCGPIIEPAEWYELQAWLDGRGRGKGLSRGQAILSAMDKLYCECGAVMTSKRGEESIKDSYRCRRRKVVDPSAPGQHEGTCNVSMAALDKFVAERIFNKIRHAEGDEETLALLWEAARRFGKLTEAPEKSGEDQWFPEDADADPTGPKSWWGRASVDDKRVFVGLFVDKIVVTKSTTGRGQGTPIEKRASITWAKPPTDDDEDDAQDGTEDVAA

In the case of “T25-ϕC31 gp3 (wild type) fusion protein (Streptomyces phage ϕC31)”, the binding [1] is reported as “binds”, the binding [2] is reported as “binds” and the binding [3] is reported as “binds”. For the same substance, the binding [4] was “no binding”.
